Measurements from US20260226096A1, “MODIFIED PROTEINS OR PEPTIDES FOR COVALENT TARGETING” (YEDA RESEARCH AND DEVELOPMENT CO. LTD., priority 2023, published 2026).
Part of at least one peptide drawing is inferred or uncertain, most often the ends. Non-standard residues stand in square brackets, D forms with d. Residues, ends and D or L forms follow the SMILES beside them. *: point of attachment. pS = N[C@@H](COP(=O)(O)O)C(=O)O; X1 = C=C(C*)C(=O)OCC

Amino acid sequences for entries named in this document (tags omitted). A change or cut given only in a name is not applied to a line headed by its entry.
UniProt P31947: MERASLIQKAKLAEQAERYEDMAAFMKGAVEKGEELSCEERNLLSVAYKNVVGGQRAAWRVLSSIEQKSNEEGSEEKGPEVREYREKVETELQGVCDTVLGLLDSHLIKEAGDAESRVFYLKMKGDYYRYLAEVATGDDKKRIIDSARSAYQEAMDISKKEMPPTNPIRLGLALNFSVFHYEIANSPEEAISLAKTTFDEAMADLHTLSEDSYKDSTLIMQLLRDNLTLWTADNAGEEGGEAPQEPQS

Target: T1, 14-3-3σ (Homo sapiens, UniProt P31947)
T1 sequence (P31947 with tags, fused parts or gaps): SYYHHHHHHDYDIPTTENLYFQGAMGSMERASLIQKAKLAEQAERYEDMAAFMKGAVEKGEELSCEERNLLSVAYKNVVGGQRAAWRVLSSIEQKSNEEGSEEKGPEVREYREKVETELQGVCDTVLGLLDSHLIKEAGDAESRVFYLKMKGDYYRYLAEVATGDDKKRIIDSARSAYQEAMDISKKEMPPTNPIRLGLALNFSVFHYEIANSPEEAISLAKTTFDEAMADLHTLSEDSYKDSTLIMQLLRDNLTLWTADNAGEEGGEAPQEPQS
Assay: Covalent labeling of 14-3-3σ by peptides, intact protein LC/MS
Conditions: peptide 5 μM, 14-3-3σ 2 μM; for increase of the rate of labeling at 37° C.: 37° C. versus 25° C.; for type of adduct formed on 14-3-3σ: room temperature, different times

SMILES | increase of the rate of labeling at 37° C. | type of adduct formed on 14-3-3σ
C=C(CSC[C@H](NC(=O)[C@H](COP(=O)(O)O)NC(=O)[C@H](C)NC(=O)[C@H](CO)NC(=O)[C@H](CCCNC(=N)N)NC(C)=O)C(=O)N1CCC[C@H]1C(=O)N[C@@H](CO)C(=O)N[C@@H](CC(C)C)C(N)=O)C(=O)OCC [SEQ ID 3, Ac-RSApSmCPSL-NH2] (Ac-RSA[pS]C(X1)PSL-NH2) | roughly 4 fold | formed only full peptide adducts
C=C(CSC[C@H](NC(=O)[C@H](COP(=O)(O)O)NC(=O)[C@H](Cc1c[nH]cn1)NC(=O)[C@H](C)NC(=O)[C@H](CCCNC(=N)N)NC(C)=O)C(=O)N1CCC[C@H]1C(=O)N[C@@H](C)C(=O)N[C@@H](CO)C(=O)N[C@@H](CC(C)C)C(=O)N[C@@H](CCC(N)=O)C(N)=O)C(=O)OCC [SEQ ID 8, Ac-RAHpSmCPASLQ-NH2] (Ac-RAH[pS]C(X1)PASLQ-NH2) | roughly 4 fold | formed only full peptide adducts
C=C(CSC[C@H](NC(=O)[C@H](CO)NC(=O)[C@H](C)NC(=O)[C@@H]1CCCN1C(=O)[C@H](CO)NC(=O)[C@H](COP(=O)(O)O)NC(=O)[C@H](Cc1c[nH]cn1)NC(=O)[C@H](C)NC(=O)[C@H](CCCNC(=N)N)NC(C)=O)C(=O)N[C@@H](CCC(N)=O)C(N)=O)C(=O)OCC [SEQ ID 11, Ac-RAHpSSPASmCQ-NH2] (Ac-RAH[pS]SPASC(X1)Q-NH2) |  | also formed a transient methacrylate only adduct which converted to the full adduct over time
